# In PubChem BioAssay AID651640 (Broad Institute, 2012):
# Among all 350,000 compounds or so, about 6,000 (1.7%) were called active. The shares of active, inactive and inconclusive entries below differ from those in the screen. No stated cut-off is given here; in the data, active means CPE inhibition above about 20% (passing the limit was not always enough); inconclusive means no clear call, values can overlap the other calls; tested in BHK-21 cells.
# Assay: protection of cells from dengue 2 killing – plate reader, single concentration, primary screen (AID 651640);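 further: 0% = median of neutral control wells and 100% = median of positive control wells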
# Conditions: DENV2-infected cells, cytopathic effect rescue, at 9.99 µM, stronger effect = higher value
row,SMILES,CPE inhibition
1,CN(C)C(=O)c1ccc(-c2ccc([C@@H]3[C@@H](CO)N4CCCCN(Cc5ccncc5)C[C@H]34)cc2)cc1,inconclusive: 22.6%
2,O=C(COc1ccccc1)NCC(=O)N1CCCC1,inconclusive: 23.9%
3,Cn1ncc([N+](=O)[O-])c1C(=O)Nc1ccccc1,inactive: 1.11%
4,CC(C)c1ccc(S(=O)(=O)N2CCN(C(=O)C3CCN(C(=O)c4ccc(F)cc4)CC3)CC2)cc1,inconclusive: 25.4%
5,CCOC(=O)n1c(=O)n(Cc2cccc(F)c2)c2ccccc21,inactive: -1.61%
6,O=C(COn1nnc2ccc(S(=O)(=O)N3CCOCC3)cc21)NCc1cccc(Cl)c1,inconclusive: 21.5%
7,C[C@H]1CN([C@@H](C)CO)C(=O)c2cc(NC(=O)Nc3ccc(C(F)(F)F)cc3)ccc2O[C@@H]1CN(C)C,inconclusive: 20.1%
8,CCOc1ccc(S(=O)(=O)NCCCn2ccnc2)cc1,inconclusive: 26.9%
9,Cc1ccc(-c2cnc3c(c2)C(=O)N([C@H](C)CO)C[C@@H](C)[C@@H](CN(C)C(=O)Cc2ccccc2)O3)cc1,inconclusive: 55.9%
10,Cn1c(=O)c2sccc2n2c(CCCC(=O)N3CCN(c4ccccn4)CC3)nnc12,inactive: -3.84%
11,COc1ccc(-c2cc(=O)oc3cc(OCC(C)=O)ccc23)cc1,inactive: 8.93%
12,CN(CC(=O)Nc1ccccc1Cl)C(=O)CSc1nc2ccccc2s1,inactive: 0.964%
13,COc1ccccc1NC(=O)CSc1nncs1,inconclusive: 21.5%
14,COc1cccc(NC(=O)CN(C)C(=O)c2cc3c(s2)CCCC3)c1,inconclusive: 36.4%
15,CC(CCNC(=O)c1ccccc1)(CCNC(=O)c1ccccc1)[N+](=O)[O-],inconclusive: 43.2%
16,C[C@@H]1CN([C@H](C)CO)S(=O)(=O)c2ccc(C#CC3(O)CCCC3)cc2O[C@H]1CN(C)C(=O)c1ccccc1,inconclusive: 20%
17,CNC[C@H]1Oc2c(NC(=O)Nc3ccc(F)cc3)cccc2C(=O)N([C@@H](C)CO)C[C@@H]1C,inconclusive: 45.3%
18,Cc1cccc(S(=O)(=O)N(C)C[C@H]2OCc3cnnn3CCCC(=O)N([C@H](C)CO)C[C@@H]2C)c1,inconclusive: 35%
19,COCCNC(=O)C[C@H]1C[C@@H]2c3cc(NC(=O)COC)ccc3O[C@@H]2[C@H](CO)O1,inactive: 6.35%
20,Cc1noc(C)c1NC(=O)N(C)C[C@H]1Oc2cc(C#CCN(C)C)ccc2S(=O)(=O)N([C@H](C)CO)C[C@H]1C,inconclusive: 38.7%
21,CCOC(=O)[C@]12CCCC=C1N(Cc1ccco1)C(=O)[C@H](CC(=O)NCc1ccc(OC)c(OC)c1)C2,inconclusive: 24.4%
22,OCC1CCN(Cc2cn(Cc3ccccc3)nc2-c2cc3ccccc3o2)CC1,inconclusive: 26.2%
23,COc1ccc(/[N+]([O-])=C/c2ccco2)cc1,inconclusive: 35.5%
24,COc1ccc(CN=Cc2c(C(=O)O)[nH]c3ccccc23)cc1,inconclusive: 22.3%

row,SMILES,CPE inhibition
1,C[C@H]1CN([C@@H](C)CO)C(=O)c2c(c3ccccc3n2C)-c2ccccc2CO[C@H]1CN(C)C(=O)Nc1ccnc(N2CCOCC2)c1,inactive: -8.91%
2,CCC(CC)C(=O)N(C)c1c(C)nc2c(OCc3ccc(F)c(F)c3)cccn12,inconclusive: 49.9%
3,CNc1cccnc1C=NNC(N)=S,inactive: -9.12%
4,Nc1nc2ccccc2n1C(=O)c1cccs1,inconclusive: 20.9%
5,CC[C@]12C(=O)N(C)C[C@H]([C@@H]3C(=O)N(C)C(=O)[C@@H]31)N2C(=O)c1ccc(C)cc1,inactive: -2.94%
6,C[C@@H]1CCCCO[C@@H](CN(C)S(=O)(=O)c2cn(C)cn2)[C@H](C)CN([C@@H](C)CO)C(=O)c2cc(NC(=O)Nc3ccc(C(F)(F)F)cc3)ccc2O1,inconclusive: 35.1%
7,CNC(=O)C[C@@H]1CC[C@H]2[C@@H](COc3ccc(NC(=O)c4ccc(OC)cc4)cc3C(=O)N2C)O1,active: 63.5%
8,COc1ccc(S(=O)(=O)N(C)C[C@H]2OCCCC[C@H](C)Oc3ccc(NC(=O)Nc4ccc(F)cc4)cc3C(=O)N([C@H](C)CO)C[C@H]2C)cc1,inconclusive: 20.8%
9,O=S1(=O)CCO[C@H]2Cc3ccccc3[C@H]2N1Cc1cccc(C(F)(F)F)c1,inconclusive: 28.3%
10,CC[C@@]1(O)C(=O)OCc2c1cc1n(c2=O)Cc2cc3c(CN(C)C)c(O)ccc3nc2-1,inactive: 6.8%
11,CCC1CCCCN1CCCNC(=O)CCNC(=O)Cn1cnc2ccccc2c1=O (configuration not stated),inconclusive: 49.8%
12,O=C(O)c1ccc(Cl)c(S(=O)(=O)NC(Cc2c[nH]c3ccccc23)C(=O)O)c1 (configuration not stated),inconclusive: 32.9%
13,O=c1[nH]cnc2c1sc1nc(-c3ccccc3)c3c(c12)CCCC3,inactive: 0.608%
14,CCOC(=O)CCSc1nc(N2CCOCC2)c2c(c1C#N)CC(C)(C)OC2,inconclusive: 26%
15,C[C@H](CO)N1C[C@H](C)[C@@H](CN(C)C(=O)Nc2ccc3c(c2)OCO3)Oc2ccc(NC(=O)Cn3cnnn3)cc2CC1=O,active: 24%
16,NC(Cc1ccc(Cl)cc1)c1csc(Nc2cc(Oc3ccccc3)ncn2)n1 (configuration not stated),inconclusive: 78.3%
17,Cn1ccnc1C(=O)c1ccc(NN)c([N+](=O)[O-])c1,inconclusive: 62.2%
18,O=C(O)CC(c1ccccc1)N1C(=O)c2ccccc2C1=O (configuration not stated),active: 40.3%
19,COc1ccc(NC(=O)N(C)C[C@H]2Oc3c(NC(=O)Nc4c(C)noc4C)cccc3C(=O)N([C@H](C)CO)C[C@H]2C)cc1,inconclusive: 25.5%
20,CCN1C(=O)[C@H]2[C@@H](c3ccc(C)cc3)N3C(=O)N(c4cccc(Cl)c4)C(=O)[C@@]3(Cc3ccc(Cl)cc3)[C@H]2C1=O,inconclusive: 30.8%
21,C[C@@H]1CN([C@H](C)CO)C(=O)Cc2cc(NC(=O)Nc3cccc4ccccc34)ccc2O[C@@H]1CN(C)Cc1ccc(C(F)(F)F)cc1,active: 20.3%
22,C=CC(C)(O)CCC=C(C)C (configuration not stated),active: 101%
23,O=C(C[C@H]1C=C[C@H](NS(=O)(=O)c2ccccc2)[C@H](CO)O1)N1CCC(Cc2ccccc2)CC1,active: 96.3%
24,CCCNC(=O)N1C[C@H](C)[C@H](OC)CN(C)C(=O)c2cc(NC(=O)CC)ccc2OC[C@H]1C,inactive: -0.559%

row,SMILES,CPE inhibition
1,COCC(=O)Nc1ccc2c(c1)OC[C@H](C)N(C(C)=O)C[C@H](C)[C@@H](OC)CN(C)C2=O,inactive: -10.7%
2,Cc1cccc(C)c1C(O)c1ncc(-c2ccccc2C(F)(F)F)[nH]1 (configuration not stated),inconclusive: 20.6%
3,COc1cc(OC)c(C=Cc2ccncn2)c(OC)c1,inconclusive: 22%
4,C[C@@H]1CN([C@@H](C)CO)C(=O)CCCn2cc(nn2)CO[C@H]1CN(C)C(=O)Nc1ccc2c(c1)OCO2,inconclusive: 49.2%
5,O=c1c2ccccc2cnn1Cc1n[nH]c(=S)n1C1CC2CCC1C2 (configuration not stated),inactive: -4.67%
6,CCOC(=O)Nc1ccc2c(c1)N(C(=O)CN(C)C)c1ccccc1S2,inconclusive: 29.9%
7,CSc1ccc(C(O)c2ncc(-c3cccc(OCc4ccccc4)c3)[nH]2)cc1 (configuration not stated),inconclusive: 70.8%
8,CCOC(=O)[C@]12Cc3c(cc(OC)c(OC)c3OC)[C@H]1N(C1CCCCC1)C(=O)c1cc(OC)ccc12,inconclusive: 27%
9,Cc1c(CCO)c(=O)[nH]n1S(=O)(=O)c1ccc(Cl)cc1Cl,inconclusive: 37.9%
10,CN(C)c1nc(N)c([N+](=O)[O-])c(NCC2CCCO2)n1 (configuration not stated),inconclusive: 21.2%
11,C[C@H]1CN([C@@H](C)CO)C(=O)c2cc(NS(=O)(=O)c3cccs3)ccc2O[C@@H]1CN(C)C(=O)NC1CCCCC1,inactive: -1.91%
12,C[C@@H]1CN([C@H](C)CO)C(=O)Cc2cc(NC(=O)Nc3ccc(F)cc3)ccc2O[C@@H]1CN(C)C(=O)Nc1ccc(C(F)(F)F)cc1,inconclusive: 50.4%
13,COc1ccccc1CNC(=O)C[C@@H]1C[C@@H]2c3cc(NC(=O)CC4CC4)ccc3O[C@@H]2[C@@H](CO)O1,inconclusive: 72.7%
14,CCO[C@H]1OC(C(=O)N2CCCCCCC2)=C[C@@H](C)[C@@H]1CCCO,inconclusive: 31.8%
15,CCOC(=O)[C@H]1[C@@H]2C(=O)N3CCC[C@H]3[C@H](O[Si](C(C)C)(C(C)C)C(C)C)[C@H]2C=C2CCN(S(=O)(=O)c3ccc(C)cc3)C[C@H]21,inactive: -7.53%
16,CCN(C(=O)CSc1nnnn1C)C1CCCCC1,inconclusive: 22.8%
17,COc1ccc(C(c2sc3nc(C)nn3c2O)N2CCN(Cc3ccccc3)CC2)cc1OC (configuration not stated),inconclusive: 32.9%
18,Fc1ccc(COc2cccc(CNCc3ccncc3)c2)cc1,inconclusive: 28.8%
19,C[C@@H]1CCCCO[C@@H](CN(C)Cc2ccc(C(F)(F)F)cc2)[C@H](C)CN([C@H](C)CO)C(=O)c2cc(NC(=O)Cc3ccccc3)ccc2O1,active: 40.4%
20,Cc1cc(-c2nnc(SCC(=O)Nc3nc(-c4ccccc4)cs3)o2)no1,inactive: -5.11%
21,CCN(C(=O)CSc1nc2c(cnn2-c2ccccc2)c(=O)[nH]1)C1CCS(=O)(=O)C1 (configuration not stated),inconclusive: 82.7%
22,CC=Cc1ccc2n(c1=O)C[C@H]1[C@H](CO)[C@@H](C(=O)NCc3ccc(F)cc3)[C@@H]2N1C (mixture of isomers),inconclusive: 37.2%
23,C[C@H](O)C#Cc1cnc2c(c1)C(=O)N([C@@H](C)CO)C[C@H](C)[C@@H](CN(C)CC1CCCC1)O2,inactive: -7.23%
24,O=C(COC(=O)c1ccc(Br)o1)Nc1ccc(Br)cc1,inconclusive: 20.9%

# Arranged by length of the SMILES (largest number first): some entries from above.
row,SMILES,CPE inhibition
21,CCN(C(=O)CSc1nc2c(cnn2-c2ccccc2)c(=O)[nH]1)C1CCS(=O)(=O)C1 (configuration not stated),inconclusive: 82.7%
5,O=c1c2ccccc2cnn1Cc1n[nH]c(=S)n1C1CC2CCC1C2 (configuration not stated),inactive: -4.67%
18,Fc1ccc(COc2cccc(CNCc3ccncc3)c2)cc1,inconclusive: 28.8%
